In the supplement of paper PMC3334620:
The full ranking holds about 33,000 sequences; the median of “E-score (-0.5 to 0.5)” is about -0.016, and the highest 2% start at about 0.3. The list shows a part of the results.

target: T1, Yer184c (UniProt P39961); experiment: PBM E-score (8-mer binding enrichment) (E-score (-0.5 to 0.5)); higher = stronger / more preferred TF binding; settings: protein concentration: 100 nM; construct: GST-full length
T1 sequence: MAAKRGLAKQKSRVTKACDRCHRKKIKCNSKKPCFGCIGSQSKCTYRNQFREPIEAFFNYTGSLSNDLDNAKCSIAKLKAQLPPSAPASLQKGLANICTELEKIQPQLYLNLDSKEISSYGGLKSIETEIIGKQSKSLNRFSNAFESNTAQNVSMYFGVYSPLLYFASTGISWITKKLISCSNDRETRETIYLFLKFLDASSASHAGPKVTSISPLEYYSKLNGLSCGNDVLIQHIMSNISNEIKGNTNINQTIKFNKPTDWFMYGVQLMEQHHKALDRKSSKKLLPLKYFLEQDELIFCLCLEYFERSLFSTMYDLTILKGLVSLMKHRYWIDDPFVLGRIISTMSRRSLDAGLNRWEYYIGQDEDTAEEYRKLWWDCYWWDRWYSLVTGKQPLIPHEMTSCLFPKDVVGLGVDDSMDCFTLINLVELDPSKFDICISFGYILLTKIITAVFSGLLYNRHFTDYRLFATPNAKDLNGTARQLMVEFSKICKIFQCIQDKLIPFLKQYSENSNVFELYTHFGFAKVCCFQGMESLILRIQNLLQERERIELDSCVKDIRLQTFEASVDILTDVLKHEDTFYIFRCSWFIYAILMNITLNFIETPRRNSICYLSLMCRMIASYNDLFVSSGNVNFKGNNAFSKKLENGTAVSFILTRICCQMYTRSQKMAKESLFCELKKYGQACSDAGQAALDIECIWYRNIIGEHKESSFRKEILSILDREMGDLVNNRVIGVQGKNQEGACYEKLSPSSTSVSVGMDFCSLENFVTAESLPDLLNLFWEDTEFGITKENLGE
Outline: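 Yeast transcription factors, full-length or as DNA-binding domains, were expressed with a GST tag using PURExpress in vitro transcription/translation. At about 100-200 nM they were applied to universal all-10-mer Agilent arrays, double-stranded by primer extension on fresh or once-stripped slides. Fluorescent anti-GST detected bound protein, and masliner normalised the scans. E-scores for ungapped eight-base words, pooled with reverse complements, came from the Universal PBM Analysis Suite.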

| Sequence | PBM E-score |
| --- | --- |
| TAGTCACA | -0.133 |
| CTAAGGAG | -0.258 |
| CCCGTATC | -0.0586 |
| GAGCCTCA | -0.168 |
| GGTTGCAC | -0.0434 |
| ACGGCTAT | 0.138 |
| GGGCTCGA | -0.151 |
| AAAATTGG | -0.138 |
| CCGTTGTC | 0.199 |
| GAATTAAC | 0.23 |
| CAGTAGAC | 0.0126 |
| GGTGGTTA | -0.029 |
| CTGGTTGC | 0.114 |
| AACACAGA | 0.188 |
| CACGGCGC | 0.0977 |
| CCATCGTC | -0.0348 |
| CACTGGTA | -0.118 |
| GGTACACC | -0.125 |
| AATAGAAT | 0.123 |
| ATCACTAG | -0.254 |
| GTACGCAC | -0.27 |
| GAGTCCAA | -0.046 |

| Sequence | PBM E-score |
| --- | --- |
| CAGCTGTA | -0.0331 |
| CACCGGTA | 0.159 |
| TATTCGAA | -0.106 |
| AATGTACT | 0.0607 |
| CTAGTCCC | -0.228 |
| TGACGGCA | -0.0984 |
| CAACAGAC | 0.0137 |
| CAGAAAAC | 0.00421 |
| ACGGCTCG | 0.21 |
| GTCAACAC | 0.198 |
| CTGACTTA | 0.0522 |
| ACTTCTCT | -0.106 |
| AATTGCCC | 0.00762 |
| CTTACATC | 0.0606 |
| GAGACGGA | 0.0834 |
| TACCGTGA | 0.0457 |
| ACTGTCAA | -0.0973 |
| CTTGAGTC | -0.0739 |
| ATAGAGCG | -0.0792 |
| ATGGTGCA | -0.0969 |
| CCAGAACG | 0.172 |
| ATCGCCCG | 0.0408 |

| Sequence | PBM E-score |
| --- | --- |
| ACCGGTCA | 0.184 |
| AGCAGGCT | -0.112 |
| GGCTTCCA | -0.072 |
| ATGATAAC | 0.127 |
| ATGCAACG | -0.114 |
| AGGTATGA | -0.00699 |
| ACAACGTC | -0.0597 |
| CACGGGTC | -0.0505 |
| CGCCCCTC | -0.199 |
| GGATTCCA | 0.13 |
| GACGGTAC | 0.111 |
| CAGATCTA | -0.0489 |
| ATCACATA | 0.126 |
| CACCATGA | -0.0987 |
| GATGAGCC | -0.0364 |
| ACAATCAA | 0.141 |
| GACGGAGC | -0.0488 |
| CCCTAGCG | -0.246 |
| AACGACAA | 0.211 |
| AAATGATG | 0.149 |
| ATTACCGA | 0.24 |
| AGTCCACG | -0.201 |

Pulled one by one from the list above:

| Sequence | PBM E-score |
| --- | --- |
| ATTACCGA | 0.24 |
| CAGATCTA | -0.0489 |
| ATGATAAC | 0.127 |
| GGATTCCA | 0.13 |
| ATCACATA | 0.126 |

Remaining list, next part.

| Sequence | PBM E-score |
| --- | --- |
| CACATTCG | 0.097 |
| ATCGGTGA | 0.0812 |
| AGATTATC | 0.0889 |
| AATGCTCA | -0.0928 |
| CCGTTATC | 0.0784 |
| AGCGAAGG | -0.0374 |
| CTCCCTAA | -0.112 |
| CTTTCCGA | 0.3 |
| ATGACCGC | -0.193 |
| CGCGAACA | 0.105 |
| AATTGCTC | -0.164 |
| ACTGATCA | 0.0899 |
| CCGCTTTA | 0.0295 |
| ATAGATTA | 0.0924 |
| GCCCGAAA | 0.171 |
| GCCGTCCA | 0.06 |
| CATCGCAG | -0.28 |
| GGGTGTTA | -0.165 |
| AGACGCTG | -0.167 |
| ACTAGCAG | -0.163 |
